PubChem BioAssay AID1053208 | Peter MacCallum Cancer Centre – 2014
Shown is an unselected part of about 17,000 deposited reagents. 788 of all reagents (4.7%) count as active. 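Calls rest on z-score classes alone; an extra cut-off of viability at most 70% of control was not applied to them.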 Not all columns of the deposit are shown. No sequences are given here.

- Screen: 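Genes whose silencing cuts survival of bone tumour cells only with doxorubicin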 (primary screen)
- Cell system: mouse osteosarcoma cells, early-passage culture from an engineered mouse model of fibroblastic bone tumour
- Reagents: siRNA pool against mouse genes, 40 nM
- Duration: about 120 h (48 h before drug, then 72 h with drug)
- Treatment: doxorubicin 100 nM for 72 h, roughly 30-40% inhibitory dose
- Measurement: 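Luminescent ATP signal taken as viability with or without 100 nM doxorubicin for 72 h; mean of two wells set against non-targeting siRNA and turned into robust z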
- Scale: viability z-score with doxorubicin: higher = more viable cells under doxorubicin; viability z-score without drug: higher = more viable cells with knock-down alone
- Rule for the call: 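a pool counts as active when its viability z-score with doxorubicin is -2 or below and its z-score without drug lies between -2 and 2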

For Sap30bp, the values are combined z-score class low cell count without drug only; viability z-score with doxorubicin -1.35; viability z-score without drug -2.36; inactive.
Depletion of Vil1 resulted in: combined z-score class no change with or without drug; viability z-score with doxorubicin 0.67; viability z-score without drug 0.17; inactive.
Silencing of Zmym6 gave: combined z-score class no change with or without drug; viability z-score with doxorubicin 0.45; viability z-score without drug 0.84; inactive.
Depletion of Nol11 resulted in: combined z-score class low cell count with and without drug; viability z-score with doxorubicin -3.37; viability z-score without drug -5.56; inactive.
With knock-down of Men1, the screen gave combined z-score class no change with or without drug; viability z-score with doxorubicin -0.22; viability z-score without drug 0.51; inactive.
Knock-down of Slc4a8 resulted in: combined z-score class no change with or without drug; viability z-score with doxorubicin 0.34; viability z-score without drug 1.52; inactive.
With knock-down of Srcin1, the screen gave combined z-score class low cell count with doxorubicin only; viability z-score with doxorubicin -2.14; viability z-score without drug -0.51; active.
Knock-down of Rbm34 resulted in: combined z-score class low cell count without drug only; viability z-score with doxorubicin -0.22; viability z-score without drug -7.42; inactive.
Ptp4a1 showed combined z-score class high cell count with and without drug; viability z-score with doxorubicin 2.02; viability z-score without drug 2.7; inactive.
Against Or5b24, the values are combined z-score class no change with or without drug; viability z-score with doxorubicin -0.45; viability z-score without drug 0; inactive.

A stretch taken from the entries so far:
Slc4a8 | combined z-score class = no change with or without drug; viability z-score with doxorubicin = 0.34; viability z-score without drug = 1.52; Outcome = inactive
Srcin1 | combined z-score class = low cell count with doxorubicin only; viability z-score with doxorubicin = -2.14; viability z-score without drug = -0.51; Outcome = active

The list goes on:
After knock-down of Mastl, the screen gave combined z-score class no change with or without drug; viability z-score with doxorubicin -0.11; viability z-score without drug 0; inactive.
Meis1 gave combined z-score class high cell count without drug only; viability z-score with doxorubicin 1.24; viability z-score without drug 2.36; inactive.
With knock-down of Polr3e, the record shows combined z-score class low cell count without drug only; viability z-score with doxorubicin -1.8; viability z-score without drug -2.7; inactive.
After knock-down of Lag3 the results were combined z-score class no change with or without drug; viability z-score with doxorubicin 1.12; viability z-score without drug 1.18; inactive.
After knock-down of Mettl28, the record shows combined z-score class no change with or without drug; viability z-score with doxorubicin -0.67; viability z-score without drug -1.35; inactive.
Silencing of Apmap came out at: combined z-score class high cell count with doxorubicin only; viability z-score with doxorubicin 2.02; viability z-score without drug 1.85; inactive.
With knock-down of Or2c1, the record shows combined z-score class no change with or without drug; viability z-score with doxorubicin 0; viability z-score without drug -1.01; inactive.
For Apol8 the deposit lists combined z-score class no change with or without drug; viability z-score with doxorubicin -0.11; viability z-score without drug 0.17; inactive.
With knock-down of Pde6a the results were combined z-score class no change with or without drug; viability z-score with doxorubicin -0.56; viability z-score without drug -1.18; inactive.
Hoxb1 showed combined z-score class no change with or without drug; viability z-score with doxorubicin -0.45; viability z-score without drug -1.52; inactive.
Galnt10 showed combined z-score class no change with or without drug; viability z-score with doxorubicin 1.46; viability z-score without drug 1.85; inactive.
Silencing of Mbd3l1 came out at: combined z-score class no change with or without drug; viability z-score with doxorubicin 1.57; viability z-score without drug 0.17; inactive.
Depletion of Ndufa13 gave: combined z-score class no change with or without drug; viability z-score with doxorubicin -0.9; viability z-score without drug -1.18; inactive.
Prss3b showed combined z-score class no change with or without drug; viability z-score with doxorubicin 0.67; viability z-score without drug -0.17; inactive.
With knock-down of Eri1, the record shows combined z-score class no change with or without drug; viability z-score with doxorubicin 1.57; viability z-score without drug 0.51; inactive.
Depletion of G6pd2 resulted in: combined z-score class no change with or without drug; viability z-score with doxorubicin 0.9; viability z-score without drug 1.01; inactive.
Pak1 showed combined z-score class no change with or without drug; viability z-score with doxorubicin -0.34; viability z-score without drug -0.17; inactive.
Knock-down of Naca resulted in: combined z-score class no change with or without drug; viability z-score with doxorubicin 0; viability z-score without drug -1.01; inactive.
